Hit rate of the full screen: of about 1,400 compounds, about 1,000 (71%) were called active. The set was probably picked from earlier hits. Inconclusive results, whose numbers are uncertain, are shown with a selection of clear calls. Calls follow the shape of the dose curve; as a rule, active = well fitted inhibition curve with a large enough effect; inconclusive = small, poorly fitted or top-dose-only effect; inactive = no such curve, though single readings can be large or run the other way. Where the call is inconclusive, the potency comes from a doubtful curve fit.
assay: Nrf2 qHTS screen for inhibitors: Nrf2 A549 ARE-Fluc Confirmation Assay for Hit Validation; conditions: A549 ARE-firefly luciferase reporter, luminescence; series mostly up to 46.1 µM; also: nearly all actives have a fitted effect of over 65% in size
Excerpt: Nrf2 is a transcription factor that maintains cellular redox homoestasis and protects cells from xenobiotics. Nrf2 binds to the antioxidant response element (ARE) to induce gene expression of a broad spectrum of genes that encode for antioxidants. […] Finding a small molecule that act as an inhibitor of Nrf2 function would represent a novel therapeutic target that could lead to improvement in survival of patients undergoing chemo- and/or radio- therapy.
In collaboration with the Biswal laboratory, a cell based, luminescence assay (BugLite) was developed to detect the Nrf2 activity using the A549 ARE_Fluc cells (AID 493153). This assay was coupled with a fluorescence based (CellTiter Fluor) cytotoxicity assay to identify and exclude toxic compounds. This coupled assay was used to evaluate selected compounds for hit validation. The data herein is the result of the BugLite assay where decrease in luminescence signal = inhibition of Nrf2 activation. Inhibition is the desired outcome for this assay.
NIH Chemical Genomics Center [NCGC]
NIH Molecular Libraries Probe Centers Network [MLPCN]
Assay Submitter (PI): Shyam Biswal, Johns Hopkins University
[1] Shibata T., et al., Genetic alteration of Keap1 confers constitutive Nrf2 activation and resistance to chemotherapy in gallbladder cancer. Gastroenterology, 2008.
[2] Sjoblom T., et al., The consensus coding sequences of human breast and colorectal cancers. Science, 2006.
Five uL of cell suspension was dispensed into 1536-well white TC-treated plate using the Kalypsys dispenser to achieve a density of 5000 cells/well in all columns except column 1. The plates were incubated at 37deg C at 5% CO2 for 2 hours before 23 nL of compounds were added with the Kalypsys pin tool equipped with a 1,536-pin array. The control compounds Budesonide and Staurosporine were added at a concentration of 2mM. Budesonide was also added as a 1:10 titration, starting at 200uM, to achieve the dose-response control signal. The plates were incubated for 18-24 hour at 37deg C, 5% CO2 followed by a 5ul addition of 5% FBS OPTI-MEM growing media in column 1 as negative control. One microliter of 5x CellTiter Fluor (Promega) was added to each well and the assay plates were incubated at 37deg C, 5% CO2 for 30 minutes. The fluorescence signal was read using the PerkinElmer ViewLux plate reader (Ex = 405 nm /Em = 525 nm) for a 3 second exposure. After the signal was taken, 3 uL of 3x BugLite was dispensed into all wells. The plates were then incubated at room temperature for 15 minutes. A second ViewLux read (40 sec exposure) was performed to detect the luminescence signal. Cytotoxicity was assessed through the first fluorescent read while biochemical activity against Nrf2 was measured in the luminescent read. The data was normalized to the positive and negative controls.
Potency is read from the fitted curve at half-maximal effect.

| SMILES | Potency |
| --- | --- |
| CC[C@@]1(O)C(=O)OCc2c1cc1n(c2=O)Cc2cc3ccccc3nc2-1 | active: 0.461 µM |
| O=C(CCCCCCCCCCC(=O)NCc1cccnc1)NCc1cccnc1 | inconclusive: 1.84 µM [inhibitor, full curve] |
| COc1cc(C[C@@H](C)N)c(OC)cc1I | inactive |
| COC(=O)C1=C(c2cccc(OCc3ccccc3)c2)C[C@@H]2CC[C@H]1N2C(=O)NCc1cc(C)oc1C(F)(F)F | inconclusive: 20.6 µM [inhibitor, single point] |
| COc1ccc(CN2CCN(C(=O)Cn3c(=O)oc4cc(Cl)ccc43)CC2)c(OC)c1OC | inconclusive: 29.1 µM [inhibitor, single point] |
| CCCCCCn1c(=O)c(C(=O)Nc2ncccc2C)c(O)c2ccccc21 | inconclusive: 18.4 µM [inhibitor, single point] |
| Cc1cc(S(=O)(=O)NC(C)C)ccc1OCC(=O)N1CCN(Cc2ccc3c(c2)OCO3)CC1 | inactive |
| CC12CC[C@H]3[C@@H](CCC4(O)C[C@H](O)CCC34/C=N/NC(=O)c3ccccc3F)C1(O)CCC2C1=CC(=O)OC1 (some centres not stated) | active: 11.6 µM |
| CCN(CC)C1=NC(=[N+](CC)CC)c2ccccc21 | active: 4.61 µM |
| CCCCNS(=O)(=O)c1ccc(OCC(=O)N2CCN(Cc3ccc4c(c3)OCO4)CC2)cc1 | inconclusive: 8.2 µM [inhibitor, partial curve] |
| COc1cc2cc(C(=O)N3CC(COS(C)(=O)=O)c4ccc(O)cc43)[nH]c2c(OC)c1OC (configuration not stated) | inconclusive: 0.0184 µM [inhibitor, full curve, poor fit] |
| c1ccc2c(c1)[IH]c1ccccc1-2 | inconclusive: 4.61 µM [inhibitor, partial curve] |
